# Measurements taken from the supplement of paper PMC8728848.
# The other results are listed elsewhere or left out.
# Columns and labels:
# Experiment in all cases: glycan array binding signal (z-score within array); higher = stronger binding
# Settings in all cases: glycan notation: IUPAC condensed, linker removed
# [1] = target: Gal(b1-3)GlcNAc(b1-6)GalNAc
# Summary of the method: (§1)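 Glycan array binding is given as a within-array Z-score, which can be read as non-binding when negative. The arrays, 3228 of them, came from the Consortium for Functional Glycomics database and were retained only where the protein sequence was available. Z-scores were averaged across arrays of the same protein sequence at different concentrations or buffers and across linkers.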
# [2] = target: Gal(b1-3)GlcNAc(b1-6)[Gal(b1-3)]GalNAc
# Summary of the method: as §1
# [3] = target: Gal(b1-3)GlcNAc6S
# Summary of the method: as §1
# [4] = target: Gal(b1-3)[Fuc(a1-4)]GlcNAc
# Summary of the method: as §1
# [5] = target: Gal(b1-3)[Fuc(a1-4)]GlcNAc(b1-2)Man
# Summary of the method: as §1
# [6] = target: Gal(b1-3)[Fuc(a1-4)]GlcNAc(b1-2)Man(a1-3)[Gal(b1-3)[Fuc(a1-4)]GlcNAc(b1-2)Man(a1-6)]Man(b1-4)GlcNAc(b1-4)[Fuc(a1-6)]GlcNAc
# Summary of the method: as §1
# [7] = target: Gal(b1-3)[Fuc(a1-4)]GlcNAc(b1-3)Gal(b1-3)[Fuc(a1-4)]GlcNAc
# Summary of the method: as §1
# [8] = target: Gal(b1-3)[Fuc(a1-4)]GlcNAc(b1-3)Gal(b1-4)[Fuc(a1-3)]GlcNAc
# Summary of the method: as §1
# [9] = target: Gal(b1-3)[Fuc(a1-4)]GlcNAc(b1-6)GalNAc
# Summary of the method: as §1
# [10] = target: Gal(b1-3)[GlcNAc(b1-6)]GalNAc
# Summary of the method: as §1
# [11] = target: Gal(b1-3)[Neu5Ac(a2-6)]GalNAc
# Summary of the method: as §1
# [12] = target: Gal(b1-3)[Neu5Ac(a2-6)]GlcNAc(b1-4)Gal(b1-4)Glc
# Summary of the method: as §1
# [13] = target: Gal(b1-3)[Neu5Ac(b2-6)]GalNAc
# Summary of the method: as §1
# [14] = target: Gal(b1-4)Gal
# Summary of the method: as §1
# [15] = target: Gal(b1-4)GalNAc(a1-3)[Fuc(a1-2)]Gal(b1-4)GlcNAc
# Summary of the method: as §1
# [16] = target: Gal(b1-4)GalNAc(b1-3)[Fuc(a1-2)]Gal(b1-4)GlcNAc
# Summary of the method: as §1
# [17] = target: Gal(b1-4)Glc
# Summary of the method: as §1
# [18] = target: Gal(b1-4)Glc6S
# Summary of the method: as §1
# [19] = target: Gal(b1-4)GlcNAc
# Summary of the method: as §1
# [20] = target: Gal(b1-4)GlcNAc(a1-6)Gal(b1-4)GlcNAc
# Summary of the method: as §1
# [21] = target: Gal(b1-4)GlcNAc(b1-2)Man
# Summary of the method: as §1
# [22] = target: Gal(b1-4)GlcNAc(b1-2)Man(a1-3)Man(b1-4)GlcNAc(b1-4)GlcNAc
# Summary of the method: as §1
# [23] = target: Gal(b1-4)GlcNAc(b1-2)Man(a1-3)[Gal(b1-4)GlcNAc(b1-2)Man(a1-6)]Man(b1-4)GlcNAc(b1-4)GlcNAc
# Summary of the method: as §1
# [24] = target: Gal(b1-4)GlcNAc(b1-2)Man(a1-3)[Gal(b1-4)GlcNAc(b1-2)Man(a1-6)]Man(b1-4)GlcNAc(b1-4)[Fuc(a1-6)]GlcNAc
# Summary of the method: as §1
# [25] = target: Gal(b1-4)GlcNAc(b1-2)Man(a1-3)[Gal(b1-4)GlcNAc(b1-2)Man(a1-6)][Gal(b1-4)GlcNAc(b1-4)]Man(b1-4)GlcNAc(b1-4)[Fuc(a1-6)]GlcNAc
# Summary of the method: as §1
# [26] = target: Gal(b1-4)GlcNAc(b1-2)Man(a1-3)[Gal(b1-4)GlcNAc(b1-2)Man(a1-6)][GlcNAc(b1-4)]Man(b1-4)GlcNAc(b1-4)[Fuc(a1-6)]GlcNAc
# Summary of the method: as §1
# [27] = target: Gal(b1-4)GlcNAc(b1-2)Man(a1-3)[GlcNAc(b1-2)Man(a1-6)]Man(b1-4)GlcNAc(b1-4)GlcNAc
# Summary of the method: as §1
# [28] = target: Gal(b1-4)GlcNAc(b1-2)Man(a1-3)[GlcNAc(b1-4)][Gal(b1-4)GlcNAc(b1-2)Man(a1-6)]Man(b1-4)GlcNAc(b1-4)GlcNAc
# Summary of the method: as §1
# [29] = target: Gal(b1-4)GlcNAc(b1-2)Man(a1-3)[Man(a1-6)]Man(b1-4)GlcNAc(b1-4)GlcNAc
# Summary of the method: as §1
# [30] = target: Gal(b1-4)GlcNAc(b1-2)Man(a1-6)Man(b1-4)GlcNAc(b1-4)GlcNAc
# Summary of the method: as §1
# [31] = target: Gal(b1-4)GlcNAc(b1-2)Man(a1-6)[GlcNAc(b1-2)Man(a1-3)]Man(b1-4)GlcNAc(b1-4)GlcNAc
# Summary of the method: as §1
# [32] = target: Gal(b1-4)GlcNAc(b1-2)Man(a1-6)[Man(a1-3)]Man(b1-4)GlcNAc(b1-4)GlcNAc
# Summary of the method: as §1
# [33] = target: Gal(b1-4)GlcNAc(b1-2)[Gal(b1-4)GlcNAc(b1-4)]Man(a1-3)[Gal(b1-4)GlcNAc(b1-2)Man(a1-6)]Man(b1-4)GlcNAc(b1-4)GlcNAc
# Summary of the method: as §1
# [34] = target: Gal(b1-4)GlcNAc(b1-2)[Gal(b1-4)GlcNAc(b1-4)]Man(a1-3)[Gal(b1-4)GlcNAc(b1-2)[Gal(b1-4)GlcNAc(b1-6)]Man(a1-6)]Man(b1-4)GlcNAc(b1-4)GlcNAc
# Summary of the method: as §1
# [35] = target: Gal(b1-4)GlcNAc(b1-2)[Gal(b1-4)GlcNAc(b1-4)]Man(a1-3)[GlcNAc(b1-4)][Gal(b1-4)GlcNAc(b1-2)Man(a1-6)]Man(b1-4)GlcNAc(b1-4)GlcNAc
# Summary of the method: as §1
# [36] = target: Gal(b1-4)GlcNAc(b1-2)[Gal(b1-4)GlcNAc(b1-4)]Man(a1-3)[GlcNAc(b1-4)][Gal(b1-4)GlcNAc(b1-2)[Gal(b1-4)GlcNAc(b1-6)]Man(a1-6)]Man(b1-4)GlcNAc(b1-4)GlcNAc
# Summary of the method: as §1
# [37] = target: Gal(b1-4)GlcNAc(b1-2)[Gal(b1-4)GlcNAc(b1-6)]Man(a1-6)[Gal(b1-4)GlcNAc(b1-2)Man(a1-3)]Man(b1-4)GlcNAc(b1-4)GlcNAc
# Summary of the method: as §1
binder,measurement,setting,value
"Erv46-EDTA (Saccharomyces cerevisiae), P39727 (protein) MKFLVNVALVFMVVYISYIYAAAPEHHHHHHDYDIPTTENLYFQGAMDSVVTRPQLVVDRDRHAKLELNMDVTFPSMPCDLVNLDIMDDSGEMQLDILDAGFTMSRLNSEGRPVGDATELHVGGNGDGTAPVNNDPNYCGPCYGAKDQSQNENLAQEEKVCCQDCDAVRSAYLEAGWAFFDGKNIEQCEREGYVSKINEHLNEGCRIKGSAQINRIQGNLHFAPGKPYQNAYGHFHDTSLYDKTSNLNFNHIINHLSFGKPIQSHSKLLGNDKRHGGAVVATSPLDGRQVFPDRNTHFHQFSYFAKIVPTRYEYLDNVVIETAQFSATFHSRPLAGGRDKDHPNTLHVRGGIPGMFVFFEMSPLKVINKEQ",glycan array binding signal (z-score),[1],-0.012
same,glycan array binding signal (z-score),[2],-0.696
same,glycan array binding signal (z-score),[3],0.208
same,glycan array binding signal (z-score),[4],-0.19
same,glycan array binding signal (z-score),[5],1.62
same,glycan array binding signal (z-score),[6],0.195
same,glycan array binding signal (z-score),[7],0.259
same,glycan array binding signal (z-score),[8],0.411
same,glycan array binding signal (z-score),[9],0.704
same,glycan array binding signal (z-score),[10],-0.116
same,glycan array binding signal (z-score),[11],-0.118
same,glycan array binding signal (z-score),[12],-0.483
same,glycan array binding signal (z-score),[13],0.175
same,glycan array binding signal (z-score),[14],-0.373
same,glycan array binding signal (z-score),[15],-0.112
same,glycan array binding signal (z-score),[16],0.1
same,glycan array binding signal (z-score),[17],0.02
same,glycan array binding signal (z-score),[18],-0.225
same,glycan array binding signal (z-score),[19],-0.332
same,glycan array binding signal (z-score),[20],-0.275
same,glycan array binding signal (z-score),[21],0.412
same,glycan array binding signal (z-score),[22],-0.633
same,glycan array binding signal (z-score),[23],-0.253
same,glycan array binding signal (z-score),[24],-0.444
same,glycan array binding signal (z-score),[25],-0.498
same,glycan array binding signal (z-score),[26],-0.491
same,glycan array binding signal (z-score),[27],0.376
same,glycan array binding signal (z-score),[28],-1.06
same,glycan array binding signal (z-score),[29],-0.25
same,glycan array binding signal (z-score),[30],-0.354
same,glycan array binding signal (z-score),[31],-0.581
same,glycan array binding signal (z-score),[32],-0.001
same,glycan array binding signal (z-score),[33],-0.584
same,glycan array binding signal (z-score),[34],-1.16
same,glycan array binding signal (z-score),[35],-0.206
same,glycan array binding signal (z-score),[36],0.184
same,glycan array binding signal (z-score),[37],-0.306

# Exported with bars between the fields: part of the list above.
binder | measurement | setting | value
Erv46-EDTA (Saccharomyces cerevisiae), P39727 (protein) MKFLVNVALVFMVVYISYIYAAAPEHHHHHHDYDIPTTENLYFQGAMDSVVTRPQLVVDRDRHAKLELNMDVTFPSMPCDLVNLDIMDDSGEMQLDILDAGFTMSRLNSEGRPVGDATELHVGGNGDGTAPVNNDPNYCGPCYGAKDQSQNENLAQEEKVCCQDCDAVRSAYLEAGWAFFDGKNIEQCEREGYVSKINEHLNEGCRIKGSAQINRIQGNLHFAPGKPYQNAYGHFHDTSLYDKTSNLNFNHIINHLSFGKPIQSHSKLLGNDKRHGGAVVATSPLDGRQVFPDRNTHFHQFSYFAKIVPTRYEYLDNVVIETAQFSATFHSRPLAGGRDKDHPNTLHVRGGIPGMFVFFEMSPLKVINKEQ | glycan array binding signal (z-score) | [8] | 0.411
same | glycan array binding signal (z-score) | [10] | -0.116
same | glycan array binding signal (z-score) | [14] | -0.373
